# Experimental data taken from PubChem BioAssay AID2662 (National Center for Advancing Translational Sciences (NCATS), 2010).
# Sequences of proteins named here, by UniProt entry; tags and fusion partners are left off.
# UniProt Q03164, whole entry, looked up: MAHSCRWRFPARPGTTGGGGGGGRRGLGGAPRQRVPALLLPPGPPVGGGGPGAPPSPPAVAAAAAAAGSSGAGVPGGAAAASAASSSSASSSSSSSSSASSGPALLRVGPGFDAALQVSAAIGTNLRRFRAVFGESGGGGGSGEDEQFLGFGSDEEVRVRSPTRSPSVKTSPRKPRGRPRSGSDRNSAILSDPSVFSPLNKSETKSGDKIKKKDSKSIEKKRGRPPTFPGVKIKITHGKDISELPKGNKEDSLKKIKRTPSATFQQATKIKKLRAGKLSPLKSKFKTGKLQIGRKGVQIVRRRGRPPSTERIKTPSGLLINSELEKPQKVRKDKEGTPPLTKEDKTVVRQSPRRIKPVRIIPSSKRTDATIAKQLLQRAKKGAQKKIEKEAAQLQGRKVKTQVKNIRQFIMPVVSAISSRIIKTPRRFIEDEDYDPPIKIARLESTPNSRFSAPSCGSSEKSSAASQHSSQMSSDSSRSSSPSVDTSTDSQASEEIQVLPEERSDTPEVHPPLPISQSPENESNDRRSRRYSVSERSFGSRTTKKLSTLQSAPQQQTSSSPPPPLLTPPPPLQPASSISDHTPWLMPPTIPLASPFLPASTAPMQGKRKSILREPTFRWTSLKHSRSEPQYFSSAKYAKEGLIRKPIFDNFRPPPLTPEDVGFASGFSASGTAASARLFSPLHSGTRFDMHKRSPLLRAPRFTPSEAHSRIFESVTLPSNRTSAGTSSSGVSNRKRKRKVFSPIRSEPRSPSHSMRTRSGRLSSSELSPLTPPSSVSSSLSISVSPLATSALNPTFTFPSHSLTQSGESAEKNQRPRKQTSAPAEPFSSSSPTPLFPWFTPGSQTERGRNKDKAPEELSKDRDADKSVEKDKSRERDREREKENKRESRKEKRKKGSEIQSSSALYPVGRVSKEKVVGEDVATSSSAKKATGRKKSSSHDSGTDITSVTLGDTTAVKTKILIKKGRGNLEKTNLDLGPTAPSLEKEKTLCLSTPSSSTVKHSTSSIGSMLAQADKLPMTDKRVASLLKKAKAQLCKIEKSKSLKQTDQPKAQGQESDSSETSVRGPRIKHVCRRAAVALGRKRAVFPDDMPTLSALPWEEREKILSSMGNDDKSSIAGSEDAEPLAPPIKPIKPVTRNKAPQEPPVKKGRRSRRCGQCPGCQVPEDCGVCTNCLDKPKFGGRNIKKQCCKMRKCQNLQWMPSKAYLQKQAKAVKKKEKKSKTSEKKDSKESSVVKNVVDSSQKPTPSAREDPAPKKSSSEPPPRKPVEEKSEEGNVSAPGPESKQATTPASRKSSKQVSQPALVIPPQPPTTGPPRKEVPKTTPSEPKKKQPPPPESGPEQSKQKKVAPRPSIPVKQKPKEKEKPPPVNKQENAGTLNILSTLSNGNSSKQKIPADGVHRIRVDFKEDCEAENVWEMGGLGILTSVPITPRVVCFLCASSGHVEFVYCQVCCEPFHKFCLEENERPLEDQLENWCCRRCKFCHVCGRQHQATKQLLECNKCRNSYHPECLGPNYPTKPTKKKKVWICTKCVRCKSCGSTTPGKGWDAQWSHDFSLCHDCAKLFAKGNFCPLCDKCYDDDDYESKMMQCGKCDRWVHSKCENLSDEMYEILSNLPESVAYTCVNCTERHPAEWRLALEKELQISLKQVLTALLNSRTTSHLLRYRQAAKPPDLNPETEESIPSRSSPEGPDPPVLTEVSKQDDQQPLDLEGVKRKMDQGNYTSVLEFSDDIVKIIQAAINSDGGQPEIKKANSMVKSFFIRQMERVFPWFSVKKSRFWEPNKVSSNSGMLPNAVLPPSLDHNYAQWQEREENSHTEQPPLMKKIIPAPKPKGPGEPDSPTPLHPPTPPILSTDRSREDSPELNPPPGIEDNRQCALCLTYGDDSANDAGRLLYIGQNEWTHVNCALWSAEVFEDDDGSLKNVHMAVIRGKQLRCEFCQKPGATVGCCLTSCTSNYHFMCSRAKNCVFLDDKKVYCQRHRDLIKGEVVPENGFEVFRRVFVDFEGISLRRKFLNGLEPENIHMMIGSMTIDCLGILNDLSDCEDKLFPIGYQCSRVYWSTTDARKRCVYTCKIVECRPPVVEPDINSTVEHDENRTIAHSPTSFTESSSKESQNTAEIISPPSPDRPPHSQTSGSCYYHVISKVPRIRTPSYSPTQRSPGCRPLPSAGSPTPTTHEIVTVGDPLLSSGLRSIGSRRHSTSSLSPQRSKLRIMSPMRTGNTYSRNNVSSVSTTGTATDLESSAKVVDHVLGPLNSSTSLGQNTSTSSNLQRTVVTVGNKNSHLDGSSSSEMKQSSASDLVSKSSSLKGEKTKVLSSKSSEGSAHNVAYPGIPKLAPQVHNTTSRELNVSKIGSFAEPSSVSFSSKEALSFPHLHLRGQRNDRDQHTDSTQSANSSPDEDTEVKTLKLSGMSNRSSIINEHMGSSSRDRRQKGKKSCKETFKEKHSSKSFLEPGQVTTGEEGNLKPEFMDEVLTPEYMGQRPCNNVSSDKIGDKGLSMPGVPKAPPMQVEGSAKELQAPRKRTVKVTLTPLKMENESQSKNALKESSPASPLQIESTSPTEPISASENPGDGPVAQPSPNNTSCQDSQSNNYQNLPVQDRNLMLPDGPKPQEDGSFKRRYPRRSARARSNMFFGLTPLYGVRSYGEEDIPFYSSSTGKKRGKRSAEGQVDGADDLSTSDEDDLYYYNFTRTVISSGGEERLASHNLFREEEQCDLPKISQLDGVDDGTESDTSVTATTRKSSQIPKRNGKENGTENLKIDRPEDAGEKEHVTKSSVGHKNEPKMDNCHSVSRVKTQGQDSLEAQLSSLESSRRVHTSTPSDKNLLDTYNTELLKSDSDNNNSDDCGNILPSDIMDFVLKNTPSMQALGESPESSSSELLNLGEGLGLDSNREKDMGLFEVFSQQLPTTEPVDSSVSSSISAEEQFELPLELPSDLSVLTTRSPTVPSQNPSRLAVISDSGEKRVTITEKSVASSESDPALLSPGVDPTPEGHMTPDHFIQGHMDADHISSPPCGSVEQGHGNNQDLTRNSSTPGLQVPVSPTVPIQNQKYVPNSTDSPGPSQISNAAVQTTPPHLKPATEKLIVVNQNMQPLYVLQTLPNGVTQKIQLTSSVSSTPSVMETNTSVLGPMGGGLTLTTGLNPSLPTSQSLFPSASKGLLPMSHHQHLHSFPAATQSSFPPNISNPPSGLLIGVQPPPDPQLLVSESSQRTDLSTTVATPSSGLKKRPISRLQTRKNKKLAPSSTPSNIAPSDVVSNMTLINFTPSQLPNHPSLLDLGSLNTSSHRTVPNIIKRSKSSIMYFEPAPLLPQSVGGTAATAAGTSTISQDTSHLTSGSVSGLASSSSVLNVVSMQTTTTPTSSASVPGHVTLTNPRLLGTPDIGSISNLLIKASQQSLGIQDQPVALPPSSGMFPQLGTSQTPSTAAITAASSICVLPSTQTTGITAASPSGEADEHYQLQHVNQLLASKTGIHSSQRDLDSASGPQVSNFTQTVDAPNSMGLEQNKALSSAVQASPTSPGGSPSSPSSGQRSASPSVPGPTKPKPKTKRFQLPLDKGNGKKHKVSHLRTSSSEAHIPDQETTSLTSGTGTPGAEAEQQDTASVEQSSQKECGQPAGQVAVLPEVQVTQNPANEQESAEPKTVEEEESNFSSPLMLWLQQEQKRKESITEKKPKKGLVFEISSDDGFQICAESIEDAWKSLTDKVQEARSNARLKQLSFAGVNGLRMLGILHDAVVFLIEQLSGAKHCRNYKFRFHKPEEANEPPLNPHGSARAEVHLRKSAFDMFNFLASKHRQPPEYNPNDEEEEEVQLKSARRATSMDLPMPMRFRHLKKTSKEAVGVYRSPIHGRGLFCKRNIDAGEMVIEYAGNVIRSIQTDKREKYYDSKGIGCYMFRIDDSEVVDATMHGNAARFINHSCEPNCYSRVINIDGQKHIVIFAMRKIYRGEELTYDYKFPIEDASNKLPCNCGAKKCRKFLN
# The campaign covered roughly 290,000 compounds. About 110 (0.038%) were called active. The inconclusive results got no clear call from the source; some entries with a clear call stand among them for comparison. Calls come from the whole dose curve; as a rule, active = well fitted inhibition curve with a large enough effect in the polarisation, with a control signal flat (not every such curve was filed as active); inconclusive = small, poorly fitted or top-dose-only effect, or effect the other way, or a change in a side signal; inactive = no such curve, though single readings can be large or run the other way; the % refers to the polarisation. Where the call is inconclusive, the potency comes from a doubtful curve fit. “Side channel” marks fits to a control or component signal instead of the main read-out.
# Target: Histone-lysine N-methyltransferase 2A (Homo sapiens) (UniProt Q03164)
# Test: qHTS Fluorescence Polarization Assay for Inhibitors of MLL CXXC domain - DNA interaction
# Conditions: MLL-CXXC / FITC-HOXA9 DNA fluorescence polarization; series mostly up to 115 µM
# Summary of the method: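 Steps: dispense CXXC domain solution (7 uM) → pin compounds or unlabeled HOX-A9 DNA control → 5 min ambient → add FLSN-HOX-A9 solution (50 nM) → spin → 30 min ambient → fluorescence polarization. Tris pH 7.5/NaCl/DTT/BSA buffer.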
# Potency is the fitted concentration of half-maximal effect.
row,SMILES,Potency
1,COC(=O)[C@H](Cc1c[nH]c2ccccc12)NC(=O)NCc1ccc(OC)c(OC)c1,"inconclusive: 8.91 µM [quencher, side channel, single point]"
2,O=C(O)COCC(=O)Nc1ccc2c(c1)oc1ccccc12,"inconclusive: 14.1 µM [inhibitor, single point]"
3,O=C(O)c1ccc(NCc2ccc(Br)cc2)cc1,"inconclusive: 31.6 µM [inhibitor, single point]"
4,Cc1cccnc1NC(=O)c1ccccc1-c1ccccc1C(=O)Nc1ncccc1C,"inconclusive: 17.8 µM [fluorescent, side channel, partial curve, poor fit]"
5,COc1cc2nc(N(C)C)nc(N)c2cc1OC,"inconclusive: 39.8 µM [inhibitor, single point]"
6,C=CCNCCCCOc1c(Cl)cc(C)cc1Br,"inconclusive: 12.6 µM [quencher, side channel, partial curve]"
7,Oc1ccccc1/C=N/NC(=S)NCCc1ccccc1,inactive
8,CCN1CCc2c(sc(NC(=O)Nc3ccc(Cl)c(Cl)c3)c2C(N)=O)C1,"inconclusive: 7.94 µM [fluorescent, side channel, partial curve]"
9,Cc1ccc(-c2nc(S(=O)(=O)c3ccccc3)c(SCC(=O)NCC3CCCO3)o2)cc1 (centres undefined),inactive
10,NS(=O)(=O)c1ccc(N=Nc2c(O)c(C(=O)O)cc3ccccc23)cc1,"inconclusive: 31.6 µM [quencher, side channel, partial curve]"
11,Cc1ccc(NC(=O)Cn2sc3nc(C)cc(C)c3c2=O)c(Cl)c1,inactive
12,Cc1cc2c(cc1[N+](=O)[O-])NC(CNC(C)C)CC2 (centres undefined),inactive
13,Cc1cc(N2CCOCC2)ccc1/C=C1\NC(=O)N(Cc2ccccc2)C1=O,"inconclusive: 44.7 µM [fluorescent, side channel, partial curve]"
14,COc1ccc(/C=C/C(=O)NC(=S)Nc2ccc(S(=O)(=O)Nc3ccc(OC)nn3)cc2)cc1,inactive
15,O=C(O)c1ccc2c(c1)C(=O)N(NC(=O)c1ccccc1)C2=O,inactive
16,Cc1ccccc1S(=O)(=O)Nc1ncnc2scc(-c3ccccc3)c12,"inconclusive: 11.2 µM [fluorescent, side channel, single point]"
17,O=C1CC(=O)c2c1cccc2[N+](=O)[O-],"inconclusive: 39.8 µM [inhibitor, single point]"
18,Cc1cc(C)cc(NC(=O)Nc2ccc(NC(=O)c3ccccc3O)cc2)c1,"inconclusive: 1.41 µM [fluorescent, side channel, full curve, poor fit]"
19,CCSc1nnc(NC(=O)c2c(C)noc2C)s1,"inconclusive: 15.8 µM [quencher, side channel, single point]"
20,O=C(Cc1ccc(Nc2nc3ccc(Br)cc3[nH]2)cc1)NCCc1cccs1,"inconclusive: 39.8 µM [quencher, side channel, single point]"

row,SMILES,Potency
1,CC(C)c1nnc(NC(=O)CCC(=O)N2CCN(C3c4ccccc4-c4ccccc43)CC2)s1,"inconclusive: 14.1 µM [inhibitor, single point]"
2,COc1cc2c3nnc(-c4ccc(F)cc4)c-3cn(Cc3cccc(F)c3)c2cc1OC,"inconclusive: 35.5 µM [fluorescent, side channel, partial curve]"
3,NCCSC1CC(=O)N(Cc2ccc(F)cc2)C1=O (centres undefined),"inconclusive: 70.8 µM [inhibitor, single point]"
4,O=C1OCc2cccc3cccc1c23,inactive
5,CC1=NOC(=O)/C1=C/c1ccc2c(c1)OCO2,"inconclusive: 6.31 µM [inhibitor, partial curve]"
6,O=C1S/C(=C\c2ccc(N3CCOCC3)o2)C(=O)N1Cc1c(F)cccc1Cl,"inconclusive: 6.31 µM [fluorescent, side channel, full curve]"
7,CC(C)N1CCC2(CC1)N=C(c1ccc3c(c1)OCO3)CC(c1cc(Cl)ccc1O)N2 (centres undefined),"inconclusive: 100 µM [quencher, side channel, partial curve]"
8,CN(C)S(=O)(=O)c1ccc(NC(=S)NC(=O)C2CCC2)cc1,"inconclusive: 11.2 µM [fluorescent, side channel, single point]"
9,COn1c(=O)c(-c2ccc(F)cc2)[n+]([O-])c2ccccc21,"inconclusive: 63.1 µM [fluorescent, side channel, single point]"
10,CC1CN(C(=O)CCc2cc(C(C)(C)C)c(O)c(C(C)(C)C)c2)CC(C)O1 (centres undefined),"inconclusive: 10 µM [fluorescent, side channel, single point]"
11,CC(Sc1nnc(-c2ccc(OC(F)F)cc2)o1)C(=O)NCC1CCCO1 (centres undefined),"inconclusive: 14.1 µM [fluorescent, side channel, single point]"
12,Cc1ccc(/C=C(/C#N)C(=O)NC(C)c2ccccc2)o1 (centres undefined),"inconclusive: 12.6 µM [fluorescent, side channel, full curve, poor fit]"
13,O=C(CCCCCn1nnc2ccccc2c1=O)Nc1ccccc1Cl,"inconclusive: 70.8 µM [inhibitor, single point]"
14,O=C(NNc1c2ccccc2nc2ccccc12)c1ccc(O)cc1O,"inconclusive: 35.5 µM [quencher, side channel, partial curve]"
15,CCOc1cc(NC(=O)c2ccccn2)c(OCC)cc1NC(=O)c1cccc(C)c1,"inconclusive: 15.8 µM [inhibitor, single point]"
16,Cc1cc(NC(=O)c2cc(-c3ccccn3)nc3c(Cl)cccc23)no1,"inconclusive: 31.6 µM [fluorescent, side channel, partial curve]"
17,O=C(NN=C1CCCCCC1)c1cc2ccccc2cc1O,"inconclusive: 17.8 µM [fluorescent, side channel, partial curve]"
18,CCCC1=[N+](CC)CCn2c(C)ccc21,inactive
19,COc1ccc(Cl)cc1NC(=O)c1nnn(CC(=O)Nc2ccc(OC)c(OC)c2)c1N,"inconclusive: 89.1 µM [fluorescent, side channel, single point]"
20,Cc1nc(NC(=O)c2cccc(-c3cc4ccccc4oc3=O)c2)ccc1Br,inactive

row,SMILES,Potency
1,Cc1cc2c(cc1C)NC(c1c(C)n(C)n(-c3ccccc3)c1=O)C1=C(CC(C)(C)CC1=O)N2 (centres undefined),"inconclusive: 35.5 µM [fluorescent, side channel, partial curve]"
2,NCCCC[C@@H]1NC(=O)c2cc([N+](=O)[O-])cc(I)c2SC[C@@H](C(N)=O)NC(=O)[C@H](Cc2ccc(O)cc2)NC1=O,"inconclusive: 35.5 µM [quencher, side channel, single point]"
3,Cc1ccc(OCC(O)Cn2c(=N)n(Cc3ccccc3)c3ccccc32)cc1 (centres undefined),"inconclusive: 28.2 µM [quencher, side channel, partial curve]"
4,c1ccc(CNCCNCc2ccccc2)cc1,inactive
5,C#C[C@]1(OC(C)=O)CC[C@H]2[C@@H]3CCC4=C/C(=N/O)CC[C@@H]4[C@H]3CC[C@@]21CC,inactive
6,COC(=O)c1[nH]c2ccc(Cl)cc2c1NC(=O)CN1CCc2cc(OC)c(OC)cc2C1,"inconclusive: 22.4 µM [quencher, side channel, partial curve]"
7,CC(C)N(C(=O)CSc1nnnn1-c1ccc2c(c1)OCO2)C(C)C,"inconclusive: 7.94 µM [quencher, side channel, full curve]"
8,COc1cc(OC)c(OC)cc1/C=C1\Oc2cc(OCC(=O)N3Cc4ccccc4C[C@H]3C(=O)O)ccc2C1=O,"inconclusive: 3.16 µM [fluorescent, side channel, full curve]"
9,Cc1ccc(C)c(NCC(=O)NNC(=S)Nc2ccccc2)c1,"inconclusive: 70.8 µM [inhibitor, single point]"
10,CCOc1ccc(OCC)c(NC(=O)CN(C)S(=O)(=O)c2ccc3nc(C)sc3c2)c1,"inconclusive: 56.2 µM [inhibitor, single point]"
11,Cc1ccc(C(=O)N/C(=C\c2ccco2)C(=O)N2CCOCC2)cc1C,"inconclusive: 1.12 µM [fluorescent, side channel, full curve]"
12,CCn1nc(C(=O)Nc2ccc(S(=O)(=O)Nc3nccs3)cc2)c2ccccc2c1=O,"inconclusive: 35.5 µM [fluorescent, side channel, single point]"
13,CCOC(=O)C1(Cc2cccc(OC)c2)CCN(C(C)CC(C)(C)O)CC1 (centres undefined),"inconclusive: 12.6 µM [inhibitor, partial curve]"
14,Oc1ccc2nnc3c(Br)cnn3c2c1,"inconclusive: 31.6 µM [fluorescent, side channel, partial curve]"
15,O=C(Nc1cccc(C(F)(F)F)c1)c1ccc2nc(-c3ccco3)c(-c3ccco3)nc2c1,inactive
16,COc1ccc(OC)c(Nc2nc(NCCO)c3ccccc3n2)c1,"inconclusive: 35.5 µM [quencher, side channel, single point]"
17,COc1cc2ccccc2cc1C(=O)Nc1ccc(N2CCN(C)CC2)cc1,"inconclusive: 89.1 µM [quencher, side channel, single point]"
18,CCC(=O)Nc1ccc2nc3c(=O)[nH]c(=S)[nH]c3nc2c1,"inconclusive: 31.6 µM [fluorescent, side channel, partial curve]"
19,O=C(CN1CCN(S(=O)(=O)c2ccccc2F)CC1)Nc1ccccc1C(=O)c1ccccc1,"inconclusive: 25.1 µM [inhibitor, single point]"

# Quoted from the listing:
# For Potency, C#C[C@]1(OC(C)=O)CC[C@H]2[C@@H]3CCC4=C/C(=N/O)CC[C@@H]4[C@H]3CC[C@@]21CC reads inactive
# For Potency, Oc1ccc2nnc3c(Br)cnn3c2c1 reads inconclusive: 31.6 µM [fluorescent, side channel, partial curve]
# For Potency, CCn1nc(C(=O)Nc2ccc(S(=O)(=O)Nc3nccs3)cc2)c2ccccc2c1=O reads inconclusive: 35.5 µM [fluorescent, side channel, single point]
# For Potency, O=C(CCCCCn1nnc2ccccc2c1=O)Nc1ccccc1Cl reads inconclusive: 70.8 µM [inhibitor, single point]
